Experimental data taken from PMC6925144, “A prospective compound screening contest identified broader inhibitors for Sirtuin 1” (Scientific Reports, 2019).
Whole data set: some 3,200 compounds, median “TSA(without NAD+) / Primary screening (TSA) / delta Tm (K)” near -0.07, cut for the highest 2% near 0.37. This is one part of the list.

Protein sequences, listed by entry. Tags and fused reporters are not part of them. Residues count along the entry.
UniProt Q96EB6, 2-747 limits assumed: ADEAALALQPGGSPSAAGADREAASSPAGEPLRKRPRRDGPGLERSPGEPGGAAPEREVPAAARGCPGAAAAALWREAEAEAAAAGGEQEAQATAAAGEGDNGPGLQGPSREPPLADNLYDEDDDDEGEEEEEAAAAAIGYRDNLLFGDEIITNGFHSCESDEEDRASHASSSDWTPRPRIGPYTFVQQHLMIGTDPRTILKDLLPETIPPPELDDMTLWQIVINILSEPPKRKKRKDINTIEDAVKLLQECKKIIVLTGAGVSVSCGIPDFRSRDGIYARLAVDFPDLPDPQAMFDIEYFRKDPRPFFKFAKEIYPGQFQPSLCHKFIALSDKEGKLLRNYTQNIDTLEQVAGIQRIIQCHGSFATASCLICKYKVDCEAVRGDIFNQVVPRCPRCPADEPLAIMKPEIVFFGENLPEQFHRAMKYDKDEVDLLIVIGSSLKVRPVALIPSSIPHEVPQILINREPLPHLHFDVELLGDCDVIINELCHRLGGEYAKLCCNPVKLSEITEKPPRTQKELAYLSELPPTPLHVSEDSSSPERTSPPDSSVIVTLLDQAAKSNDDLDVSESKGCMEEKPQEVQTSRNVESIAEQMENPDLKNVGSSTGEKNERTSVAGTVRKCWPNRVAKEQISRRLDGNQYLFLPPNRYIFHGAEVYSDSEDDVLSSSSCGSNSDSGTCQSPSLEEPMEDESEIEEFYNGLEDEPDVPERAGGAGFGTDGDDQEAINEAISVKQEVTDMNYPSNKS

Each compound was assayed against NAD-dependent deacetylase Sirtuin 1 (human, UniProt Q96EB6) (assay: primary screen, delta tm). Conditions: 10 µM.
Parameters: single well (n = 1)
Outline: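 Thermal shift of Sirtuin 1 measured without NAD+, compound at 10 µM (n = 1); value is ΔTm, with hits defined as ΔTm > 0.45 K or < −1.5 K. Hits retested at 5, 10, 20 µM (n = 4) and counterscreened on bovine carbonic anhydrase and ABL1 SH2 domain.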

| SMILES | TSA(without NAD+) / Primary screening (TSA) / delta Tm (K) |
| --- | --- |
| COC(=O)c1ccc2[nH]c3c(c2c1)CN(c1cn[nH]c(=O)c1Cl)CC3 | 0.07 |
| CN(Cc1nc(-c2cccnc2)no1)Cc1c[nH]nc1-c1cccnc1 | -0.08 |
| COCCCNC(=O)/C(=C/c1ccc(OCc2ccccc2)cc1)c1nc2ccccc2[nH]1 | 0.17 |
| CCC(N)CO (centres unmarked) | 0.12 |
| C=C(C)CCN | -0.15 |
| CCOc1ccc(-n2c(C)cc(C(=O)COc3ccccc3C(N)=O)c2C)cc1 | -0.02 |
| O=C(CSc1nnc(NCC2CCCO2)s1)Nc1nc(-c2cc(F)ccc2F)cs1 (centres unmarked) | -0.03 |
| COCC(C)N (centres unmarked) | -0.11 |
| O=C(CCn1[nH]c(=O)ccc1=O)Nc1nc2ccccc2s1 | -0.13 |
| N#Cc1c(=O)c2cccnc2n2c1[nH]c1ccccc12 | 0.07 |
| NCCOCC(=O)O | -0.23 |
| CC(C)(C)OC(=O)N1CCCC1C(=O)N1CCN(c2cnccn2)CC1 (centres unmarked) | -0.13 |
| O=C(CSc1nccn1Cc1ccccn1)c1cccc(OC(F)F)c1 | -0.14 |
| Cc1ccc(-n2ccnc2SCC(=O)N(CCC(N)=O)Cc2ccccc2)c(C)c1 | 0.07 |
| Cc1ccc(C(=O)C2=C(O)C(=O)N(CCCN3CCOCC3)C2c2ccc(OC(C)C)cc2)cc1 (centres unmarked) | 0.12 |
| COc1ccc(S(=O)(=O)Nc2ccccc2OC)cc1NN=C1C(=O)NC(=S)NC1=O | -0.18 |
| O=C(NC1CCCc2ccccc21)C(c1ccccc1)c1ccccc1 (centres unmarked) | -0.05 |
| CN(c1ccccc1)S(=O)(=O)c1cccc(C(=O)Nc2ccccc2C(F)(F)F)c1 | -0.14 |
| NC(=O)c1ccc(C(=O)OCC(=O)Nc2ccccc2-c2ccccc2)cc1 | -0.18 |
| CCC(=O)N1N=C(c2cccs2)CC1c1ccc(OC)cc1 (centres unmarked) | -0.27 |
| CC(C)(C)c1noc(CCCC(=O)Nc2ccc(F)c(C(N)=O)c2)n1 | -0.15 |

| SMILES | TSA(without NAD+) / Primary screening (TSA) / delta Tm (K) |
| --- | --- |
| Cc1ccc(C2CCCN2)cc1 (centres unmarked) | -0.11 |
| Nc1nc(COC(=O)c2cccc(NC(=O)c3cccs3)c2)nc(Nc2ccccc2)n1 | 0.18 |
| O=C(Nc1ccccc1Cc1ccccc1)c1ccc2ccccc2c1 | -0.08 |
| Cc1cccn2cc(CSc3nc4ccsc4c(=O)n3C)nc12 | -0.13 |
| CN1/C(=C/C=C2C(=O)NC(=S)NC2=O)C(C)(C)c2ccccc21 | -0.15 |
| Cc1nc(C)c(-c2nnc(SCC(=O)N3CCN(Cc4cccs4)CC3)o2)s1 | 0.02 |
| N#C/C(=C/c1ccc(-c2cccc(Cl)c2Cl)o1)C(=O)Nc1cccc2ncccc12 | -0.23 |
| COc1cccc(N2C(=O)NC(=O)C2=O)c1 | -0.22 |
| O=C1NC(=O)c2ccccc2/C1=C\NNC(=O)C12CC3CC(CC(C3)C1)C2 | 0.33 |
| O=C1c2ccccc2NC2(CCCCC2)N1c1ccc2c(c1)OCCO2 | -0.11 |
| Cc1ccccc1CN1CCN(C(C)C(=O)Nc2sccc2C(N)=O)CC1 (centres unmarked) | -0.03 |
| O=C(OCc1cccc(C(F)(F)F)c1)c1cnc2sccn2c1=O | -0.13 |
| Cn1cc(C2CCNC2)c2ccccc21 (centres unmarked) | -0.23 |
| COc1ccc(CN2CCN(c3ncnc4sc5c(c34)CCCCC5)CC2)cc1 | -0.28 |
| CCC(C)c1ccc(NC(=O)C(C#N)C(=O)c2cncc(F)c2)cc1 (centres unmarked) | 0.13 |
| Cn1ccc(CC(=O)Nc2nc(-c3cc(C(N)=O)co3)cs2)n1 | -0.18 |
| CCOc1ccc(NC(=O)CN(C)Cc2ccc(C(=O)Nc3ccccc3)cc2)cc1OCC | 0.03 |
| CC(CNC(=O)C1CCCN1C(=O)c1ccc2c(c1)OCO2)N(C)C (centres unmarked) | -0.12 |
| Nc1ncc(Cc2ccc(Br)cc2)s1 | -0.08 |
| Cc1ccc(C(=O)C2=C(O)C(=O)N(CCCN3CCOCC3)C2c2cccc(Br)c2)cc1 (centres unmarked) | 0.12 |
| CCC(=O)N(c1nnc(SCC(=O)c2ccc(-c3ccccc3)cc2)s1)C1CC1 | 0.13 |

| SMILES | TSA(without NAD+) / Primary screening (TSA) / delta Tm (K) |
| --- | --- |
| COCc1cc(NCc2cnn(Cc3ccccc3)c2)n2ncnc2n1 | -0.02 |
| Cc1ccsc1CN(C)C(=O)CCc1nc2ccccc2n(CCc2ccccc2)c1=O | 0.17 |
| CCS(=O)(=O)NC(C)C(=O)O (centres unmarked) | -0.17 |
| O=c1[nH]c2sc3c(c2c2nc(-c4ccc(Br)cc4)nn12)CCCCC3 | 0.08 |
| CCCn1nnnc1CN1C(=O)NC(Cc2c[nH]c3ccccc23)C1=O (centres unmarked) | -0.28 |
| COc1ccc(C)c2c1N(C(=O)c1cccc(-n3cnnn3)c1)CCC2 | 0.07 |
| Cc1cc(C)c2c(n1)sc1c(N3CCN(CCO)CC3)ncnc12 | -0.07 |
| N#Cc1ccc(NCC2CCN(c3ncnc4ccsc34)C2)nc1 (centres unmarked) | -0.02 |
| CS(=O)(=O)c1cccc(C(=O)N(Cc2ccccc2)c2ccccc2)c1 | -0.13 |
| ClC1=Nc2c(cnn2-c2ccccc2)CN1 | -0.23 |
| Cc1cc(N(C)C)n2nc(C(F)(F)F)c(-c3ccccc3)c2n1 | -0.18 |
| O=C(O)c1cccc(CNC(=O)c2ccc3[nH]ccc3c2)c1 | -0.15 |
| O=C(NCc1ccc(-n2cnc3ccccc32)nc1)c1ccc2[nH]cnc2c1 | -0.02 |
| Cc1ccc(C23CC4CC(CC(C(=O)N5CCN(S(=O)(=O)Cc6ccccc6)CC5)(C4)C2)C3)cc1 | -0.02 |
| CCc1ccc(CN(C)C(=O)c2cc(C)nc3ccccc23)cc1 | -0.01 |
| Nc1nc(-c2ccc[nH]2)cs1 | -0.11 |
| O=C(c1cnc2ccc3[nH]ncc3c2c1)c1ccccc1O | -0.13 |
| COc1cc(CN(C)C(=O)COc2ccc3ccc(=O)oc3c2)ccc1OCc1ccccc1 | 0.06 |
| Cc1sc2nc(CN3CCCC3)nc(N3CCC(C(N)=O)CC3)c2c1C | -0.12 |
| O=C1NC(=S)NC(=O)C1=Cc1c2oc(-c3ccccc3)cc(-c3ccccc3)c-2c2ccccc12 | -0.14 |

Quoted from the entries so far (16 entries):

| SMILES | TSA(without NAD+) / Primary screening (TSA) / delta Tm (K) |
| --- | --- |
| COCc1cc(NCc2cnn(Cc3ccccc3)c2)n2ncnc2n1 | -0.02 |
| Cc1ccsc1CN(C)C(=O)CCc1nc2ccccc2n(CCc2ccccc2)c1=O | 0.17 |
| CCS(=O)(=O)NC(C)C(=O)O (centres unmarked) | -0.17 |
| O=c1[nH]c2sc3c(c2c2nc(-c4ccc(Br)cc4)nn12)CCCCC3 | 0.08 |
| CCCn1nnnc1CN1C(=O)NC(Cc2c[nH]c3ccccc23)C1=O (centres unmarked) | -0.28 |
| COc1ccc(C)c2c1N(C(=O)c1cccc(-n3cnnn3)c1)CCC2 | 0.07 |
| Cc1cc(C)c2c(n1)sc1c(N3CCN(CCO)CC3)ncnc12 | -0.07 |
| N#Cc1ccc(NCC2CCN(c3ncnc4ccsc34)C2)nc1 (centres unmarked) | -0.02 |
| CS(=O)(=O)c1cccc(C(=O)N(Cc2ccccc2)c2ccccc2)c1 | -0.13 |
| ClC1=Nc2c(cnn2-c2ccccc2)CN1 | -0.23 |
| Cc1cc(N(C)C)n2nc(C(F)(F)F)c(-c3ccccc3)c2n1 | -0.18 |
| O=C(O)c1cccc(CNC(=O)c2ccc3[nH]ccc3c2)c1 | -0.15 |
| O=C(NCc1ccc(-n2cnc3ccccc32)nc1)c1ccc2[nH]cnc2c1 | -0.02 |
| Cc1ccc(C23CC4CC(CC(C(=O)N5CCN(S(=O)(=O)Cc6ccccc6)CC5)(C4)C2)C3)cc1 | -0.02 |
| CCc1ccc(CN(C)C(=O)c2cc(C)nc3ccccc23)cc1 | -0.01 |
| Nc1nc(-c2ccc[nH]2)cs1 | -0.11 |
